Legend:
PSD-95 = PSD-95 (Mus musculus, UniProt Q62108); conditions: mouse spinal cord lysate, biotinylated peptide on streptavidin beads
PICK1 = PICK1 (Mus musculus, UniProt Q62083); conditions: mouse spinal cord lysate, biotinylated peptide on streptavidin beads
nNOS = nNOS (Mus musculus, UniProt Q9Z0J4); conditions: mouse spinal cord lysate, biotinylated peptide on streptavidin beads
[1] = Size exclusion chromatography of peptides (oligomeric state); assay type: physicochemical; conditions: 400 μM peptide, Example 3

By UniProt entry, the sequences of proteins in these tests, tags left out.
UniProt Q62108, whole entry: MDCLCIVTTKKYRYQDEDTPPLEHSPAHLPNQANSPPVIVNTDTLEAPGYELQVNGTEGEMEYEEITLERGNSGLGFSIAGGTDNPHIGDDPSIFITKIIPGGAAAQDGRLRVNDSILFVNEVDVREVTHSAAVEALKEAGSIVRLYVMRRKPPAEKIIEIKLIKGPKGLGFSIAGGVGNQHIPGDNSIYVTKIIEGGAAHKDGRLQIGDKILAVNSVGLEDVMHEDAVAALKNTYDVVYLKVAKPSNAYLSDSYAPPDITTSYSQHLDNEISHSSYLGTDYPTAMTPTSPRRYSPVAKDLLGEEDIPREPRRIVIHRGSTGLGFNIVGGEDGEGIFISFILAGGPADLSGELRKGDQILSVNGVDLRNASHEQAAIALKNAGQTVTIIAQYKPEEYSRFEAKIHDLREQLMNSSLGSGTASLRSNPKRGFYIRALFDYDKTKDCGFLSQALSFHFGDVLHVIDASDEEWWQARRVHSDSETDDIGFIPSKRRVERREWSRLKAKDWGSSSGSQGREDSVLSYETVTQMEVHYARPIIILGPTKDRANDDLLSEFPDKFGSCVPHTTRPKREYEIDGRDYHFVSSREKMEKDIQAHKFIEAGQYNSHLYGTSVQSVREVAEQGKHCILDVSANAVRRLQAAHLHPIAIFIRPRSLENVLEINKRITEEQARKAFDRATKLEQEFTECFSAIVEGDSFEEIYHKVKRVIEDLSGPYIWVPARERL
UniProt Q62083, whole entry: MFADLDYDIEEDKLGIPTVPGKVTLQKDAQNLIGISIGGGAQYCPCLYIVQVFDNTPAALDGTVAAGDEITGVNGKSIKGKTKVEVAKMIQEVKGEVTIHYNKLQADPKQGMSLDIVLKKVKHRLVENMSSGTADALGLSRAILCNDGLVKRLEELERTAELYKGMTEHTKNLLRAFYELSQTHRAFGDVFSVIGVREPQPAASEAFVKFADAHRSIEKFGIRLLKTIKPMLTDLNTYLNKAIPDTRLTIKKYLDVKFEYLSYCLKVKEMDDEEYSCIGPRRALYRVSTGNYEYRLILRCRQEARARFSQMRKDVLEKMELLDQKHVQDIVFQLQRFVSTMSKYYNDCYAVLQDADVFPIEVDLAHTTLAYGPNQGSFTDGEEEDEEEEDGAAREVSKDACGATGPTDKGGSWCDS
UniProt Q9Z0J4, whole entry: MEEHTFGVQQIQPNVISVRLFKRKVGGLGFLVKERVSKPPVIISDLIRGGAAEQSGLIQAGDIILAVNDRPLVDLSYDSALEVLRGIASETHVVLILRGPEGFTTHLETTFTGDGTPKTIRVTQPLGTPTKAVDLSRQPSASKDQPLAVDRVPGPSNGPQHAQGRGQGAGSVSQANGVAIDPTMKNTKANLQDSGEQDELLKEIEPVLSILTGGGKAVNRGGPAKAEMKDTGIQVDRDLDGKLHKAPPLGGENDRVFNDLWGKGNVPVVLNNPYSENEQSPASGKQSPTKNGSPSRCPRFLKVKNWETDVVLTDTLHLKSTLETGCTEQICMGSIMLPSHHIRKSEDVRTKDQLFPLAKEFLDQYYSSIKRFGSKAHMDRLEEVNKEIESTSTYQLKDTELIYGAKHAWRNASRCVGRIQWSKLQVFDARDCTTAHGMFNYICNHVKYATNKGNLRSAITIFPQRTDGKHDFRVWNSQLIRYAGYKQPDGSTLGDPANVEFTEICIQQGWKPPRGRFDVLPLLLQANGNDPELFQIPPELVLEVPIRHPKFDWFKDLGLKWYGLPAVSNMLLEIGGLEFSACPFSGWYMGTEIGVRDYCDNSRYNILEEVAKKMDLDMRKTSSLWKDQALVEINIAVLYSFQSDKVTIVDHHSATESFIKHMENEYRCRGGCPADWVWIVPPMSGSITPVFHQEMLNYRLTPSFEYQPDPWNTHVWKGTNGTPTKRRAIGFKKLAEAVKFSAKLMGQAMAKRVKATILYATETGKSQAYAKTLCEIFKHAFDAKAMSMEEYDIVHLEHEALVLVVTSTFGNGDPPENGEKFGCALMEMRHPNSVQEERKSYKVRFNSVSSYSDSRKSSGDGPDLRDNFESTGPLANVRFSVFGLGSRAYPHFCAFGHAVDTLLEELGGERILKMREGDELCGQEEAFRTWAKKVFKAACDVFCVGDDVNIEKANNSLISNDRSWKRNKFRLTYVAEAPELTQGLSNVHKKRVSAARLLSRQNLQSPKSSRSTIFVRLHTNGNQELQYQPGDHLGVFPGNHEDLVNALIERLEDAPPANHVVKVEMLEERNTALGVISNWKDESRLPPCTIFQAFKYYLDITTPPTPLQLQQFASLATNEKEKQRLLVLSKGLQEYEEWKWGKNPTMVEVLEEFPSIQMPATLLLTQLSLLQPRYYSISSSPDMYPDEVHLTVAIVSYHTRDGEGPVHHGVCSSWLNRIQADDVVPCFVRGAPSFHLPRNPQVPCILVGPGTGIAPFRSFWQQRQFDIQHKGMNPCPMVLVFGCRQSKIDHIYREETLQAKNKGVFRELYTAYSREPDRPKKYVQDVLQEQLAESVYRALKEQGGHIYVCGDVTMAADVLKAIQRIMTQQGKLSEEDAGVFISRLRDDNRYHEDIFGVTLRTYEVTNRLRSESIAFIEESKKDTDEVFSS

Sequence | target engagement with PSD-95 protein (pull-down) (PSD-95) | target engagement with PICK1 protein (pull-down) (PICK1) | target engagement with nNOS protein (pull-down) (nNOS) | oligomeric state in solution (SEC) [1]
RMKQLEDKVEELLSKNYHLENEVARLKKLVGGGGSGGGGS [GCN4p1-GS4-GS4] | does not bind PSD-95 protein | does not bind PICK1 | does not bind nNOS protein | 
RMKQLEDKVEELLSKQYHLENEVARLKKLVGGGGSRRTTPV (GCN4p1(NQ)-GS4-RRTTPV) |  |  |  | trimeric constructs

— patent publication US20230348540A1, “Viral multimeric peptide constructs for targeting PDZ domains” (University of Copenhagen, priority 2020, published 2023)
